Data on two substances can be found in PMC4171630.

Protein sequences, listed by entry. Tags and fused reporters are not part of them.
UniProt P31749: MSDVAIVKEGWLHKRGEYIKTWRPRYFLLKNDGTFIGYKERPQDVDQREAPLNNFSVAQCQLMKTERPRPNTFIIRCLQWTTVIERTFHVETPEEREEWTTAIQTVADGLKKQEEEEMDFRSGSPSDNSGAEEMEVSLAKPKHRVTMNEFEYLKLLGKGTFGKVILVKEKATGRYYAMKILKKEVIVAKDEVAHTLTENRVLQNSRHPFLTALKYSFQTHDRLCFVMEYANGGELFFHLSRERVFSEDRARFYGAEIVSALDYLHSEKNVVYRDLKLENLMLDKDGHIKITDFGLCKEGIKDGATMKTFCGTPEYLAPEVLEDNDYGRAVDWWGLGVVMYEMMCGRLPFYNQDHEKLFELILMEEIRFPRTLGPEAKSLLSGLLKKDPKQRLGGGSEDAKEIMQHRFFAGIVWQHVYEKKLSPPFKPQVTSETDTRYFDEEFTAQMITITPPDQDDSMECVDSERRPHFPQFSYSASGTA

Results are given in words; binding and its absence hold for the method and conditions named. In cells and extracts the contact can be indirect. Some binding calls cover weakened binding; strength is not graded here. Sequences can lack the tags named with a protein.

The assay concerns the target T1, FLAG-cPLA2α (cytosolic phospholipase A2α) (human) (UniProt P47712).
T1 sequence: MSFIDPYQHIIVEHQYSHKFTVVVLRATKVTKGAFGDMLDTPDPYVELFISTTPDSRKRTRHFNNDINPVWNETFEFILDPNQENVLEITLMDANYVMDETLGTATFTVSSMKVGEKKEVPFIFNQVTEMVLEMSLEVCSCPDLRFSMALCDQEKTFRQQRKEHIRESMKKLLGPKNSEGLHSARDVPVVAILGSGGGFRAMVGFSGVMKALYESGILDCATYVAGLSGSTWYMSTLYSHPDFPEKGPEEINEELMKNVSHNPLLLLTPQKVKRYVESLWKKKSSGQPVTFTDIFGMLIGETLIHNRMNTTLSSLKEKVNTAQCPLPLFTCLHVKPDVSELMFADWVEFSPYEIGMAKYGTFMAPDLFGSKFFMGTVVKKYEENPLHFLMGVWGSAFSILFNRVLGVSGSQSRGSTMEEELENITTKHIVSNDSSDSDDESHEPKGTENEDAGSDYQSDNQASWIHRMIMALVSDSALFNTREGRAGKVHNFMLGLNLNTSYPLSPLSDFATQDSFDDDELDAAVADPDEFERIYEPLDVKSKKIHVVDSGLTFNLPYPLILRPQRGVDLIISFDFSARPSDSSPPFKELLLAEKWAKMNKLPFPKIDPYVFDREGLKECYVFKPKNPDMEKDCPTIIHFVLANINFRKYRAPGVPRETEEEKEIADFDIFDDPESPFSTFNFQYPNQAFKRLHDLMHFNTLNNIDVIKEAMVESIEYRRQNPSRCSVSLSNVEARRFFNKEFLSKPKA
In words: co-IP; HEK 293 cells co-transfected with FLAG-cPLA2α and Myr-AKT for 36 h, stimulated with EGF (25 ng/ml, 15 min); 0.5 mg total protein incubated overnight with 2 μg anti-FLAG, anti-AKT or control IgG antibody; eluted proteins immunoblotted with anti-cPLA2α, anti-AKT and anti-pAKT. (Immunoblotting shows a protein as a band on a membrane.)

Take “pAKT (Myr-AKT phosphorylated at Ser473) (from UniProt P31749 1-480) (enzyme)”: the binding result is “binds”. Turning to “Myr-AKT (AKT with a myristoylation signal) (from UniProt P31749 1-480) (enzyme)”, the binding result is given as “binds”.
